Laboratory results as given in PubChem BioAssay AID1259415 (National Center for Advancing Translational Sciences (NCATS), 2018).
The campaign covered roughly 410,000 compounds. About 18,000 (4.4%) were called active. The shares of active, inactive and inconclusive entries below differ from those in the screen. Cut-off read from the data, not from the text of the source: active = activity change below about -60%; inconclusive = no clear call, values can overlap the other calls; inactive = above about -39%.

assay: qHTS Assay for inhibitors of the human cytomegalovirus (HCMV); details: HFF cells, HCMV-luciferase reporter, 72 h; at 57.5 µM; active compounds read low
Source text: NCGC Assay Overview: Infection with human cytomegalovirus (HCMV) continues to pose significant threats for pregnant women and immunocompromised hosts. HCMV causes serious morbidity and mortality in transplant recipients, and congenital HCMV is the leading infectious cause of mental retardation and deafness in children. In the 1990s, the annual costs associated with the disease burden of congenital CMV were estimated at around $2 billion. A HCMV vaccine is not available yet and HCMV therapies result in intolerable side effects and emergence of drug resistant viruses. […] Towards this goal we have developed and characterized a luciferase HCMV reporter that was initially used in 96 well plates and then optimized to 1536-well plates for utilization in screening of the MLSMR collection, the NGCG diversity collection and the NCGC Pharmaceutical Collection of approved and investigational drugs.
NCGC Assay Protocol Summary:
This is a cell-based assay for HCMV inhibition in HFFs cells. The screening used 2 compound doses and the HCMV-luciferase at MOI of 1 PFU/cell. Cells were treated and infected with HCMV. At 72 h post infection cell lysates were collected and luciferase activity was determined using the Glomax-Multi + Detection System (Promega, Madison, WI). Data were normalized to the controls for basal activity (buffer only) and known HCMV inhibitors Salinmoycin.
1536-well assay protocol for the assay:
(1) Add 3 ul CMV/HFF cell culture. 1000 cells/well in DMEM nirmal media.
(2) Incubate 16 hr at 37C.
(3) Add 23 nl control compound, 10uM of Salinomycin.
(4) Add 23 nl compounds in DMSO solution.
(5) Add 3 ul CMV suspension. Final 1 puf/ul, Virus stock 2000pfu/ul
(6) Incubate 72 hrs at 37C.
(7) Add 4 ul OneGlo Luc Reagent.
(8) Incubate 5 min at room temperature.
% is set by controls: 0 for no effect and ±100 for the full control effect.

Question: With `CC(=O)c1cccc(NC(=O)C(C)OC(=O)CCn2c(C)csc2=O)c1` (stereo unspecified) as the compound, how does the activity change, negative = inhibition read?
Answer: Its activity change, negative = inhibition is inactive: 0%.

Question: With `CC(=Nc1ccccc1N)c1c(O)n(C)c(=O)[nH]c1=O` as the compound, how does the activity change, negative = inhibition read?
Answer: Its activity change, negative = inhibition is inconclusive: -44.9%.

Question: With `Cc1cccc(C)c1OC(=O)Cc1ccccc1[N+](=O)[O-]` as the compound, how does the activity change, negative = inhibition read?
Answer: Its activity change, negative = inhibition is active: -63.7%.

Question: For `c1cc2c3c(cccc3c1)NC1(CCC3(CC1)Nc1cccc4cccc(c14)N3)N2`, which activity change, negative = inhibition is on record?
Answer: Its activity change, negative = inhibition is inconclusive: -45.8%.

Question: With `CCOC(=O)c1c(C)sc2c1N(C(=O)CCl)c1cc(Cl)ccc1S2` as the compound, how does the activity change, negative = inhibition read?
Answer: Its activity change, negative = inhibition is active: -96%.

Question: Which activity change, negative = inhibition does the source give for `Cc1nc(-c2ccc(C(F)(F)F)cc2)sc1C(=O)NN` here?
Answer: The activity change, negative = inhibition was inconclusive: -57.4%.

Question: With `CCCCN1C(=O)Cc2c1nc(N)c1c(N)nc(N(CCC)CCC)c(C#N)c21` as the compound, how does the activity change, negative = inhibition read?
Answer: Its activity change, negative = inhibition is inactive: -22.4%.

Question: With `CCc1ccc(N(CC)C(=O)c2ccc3c(=O)n4c(nc3c2)CCCCC4)cc1` as the compound, how does the activity change, negative = inhibition read?
Answer: The activity change, negative = inhibition was inactive: -20.8%.

Question: Which activity change, negative = inhibition does the source give for `CN(C)S(=O)(=O)c1cccc(NC(=S)NC(=O)C2CCCCC2)c1` here?
Answer: Its activity change, negative = inhibition is inconclusive: -57.9%.

Question: For `COc1cc2cc(NC(C)=O)cc(NCc3ccccc3)c2cc1OC`, which activity change, negative = inhibition is on record?
Answer: Its activity change, negative = inhibition is inactive: 28%.

Question: With `COCCN1C(=O)c2[nH]nc(-c3ccccc3O)c2C1c1ccc(OCc2ccccc2)c(OC)c1` (stereo unspecified) as the compound, how does the activity change, negative = inhibition read?
Answer: The activity change, negative = inhibition was active: -103%.

Question: Which activity change, negative = inhibition does the source give for `Cc1cccc2nc(-c3ccccc3)nc(N3CCC(O)(c4ccc(Cl)cc4)CC3)c12` here?
Answer: The activity change, negative = inhibition was inconclusive: -40.1%.

Question: Which activity change, negative = inhibition does the source give for `O=C1CN=C(c2ccccc2)c2c(sc3c2CCCC3)N1` here?
Answer: Its activity change, negative = inhibition is inconclusive: -49.9%.

Question: For `CCc1ccc(OCC(=O)NNCC(=O)Nc2ccc(OC)cc2)cc1`, which activity change, negative = inhibition is on record?
Answer: The activity change, negative = inhibition was inactive: -26.4%.

Question: Which activity change, negative = inhibition does the source give for `CC1CC(OCC(O)C[N+]2(C)CCOCC2)CC(C)(C)C1` (stereo unspecified) here?
Answer: Its activity change, negative = inhibition is inconclusive: -50.9%.

Question: With `O=S(=O)(Nc1nc(SCc2ccc(Cl)cc2)n[nH]1)c1ccccc1` as the compound, how does the activity change, negative = inhibition read?
Answer: The activity change, negative = inhibition was inactive: 30.7%.

Question: For `CN(C)S(=O)(=O)Oc1cc(Cl)ccc1C(=O)Nc1ccc(F)cc1F`, which activity change, negative = inhibition is on record?
Answer: The activity change, negative = inhibition was inactive: -39.8%.

Question: For `Cc1cc(C(=O)CN2CCC(C)CC2)c(C)n1-c1ccc(F)cc1`, which activity change, negative = inhibition is on record?
Answer: Its activity change, negative = inhibition is inactive: 101%.

Question: For `CCCNC(=O)c1ccc2c(c1)C1C3CCC(C3)C1C(c1ccccc1)N2` (stereo unspecified), which activity change, negative = inhibition is on record?
Answer: The activity change, negative = inhibition was inconclusive: -47.3%.

Question: With `CCCN(CCC)C(=O)CSc1nnc2cc(C)c3cc(C)cc(C)c3n12` as the compound, how does the activity change, negative = inhibition read?
Answer: The activity change, negative = inhibition was inconclusive: -52.9%.

Question: With `COc1ccc2c(c1)c1c(c(=O)n(-c3ccccc3C)c(=O)n1CC(=O)NCc1ccc(C)cc1)n2C` as the compound, how does the activity change, negative = inhibition read?
Answer: The activity change, negative = inhibition was inconclusive: -52.5%.

Question: With `CN(CCc1ccccn1)Cc1ccc(Cl)cc1` as the compound, how does the activity change, negative = inhibition read?
Answer: The activity change, negative = inhibition was inactive: 33.2%.

Question: With `Cc1ccc2cccc(NC(=O)COc3ccccc3[N+](=O)[O-])c2n1` as the compound, how does the activity change, negative = inhibition read?
Answer: The activity change, negative = inhibition was inactive: 26.1%.

Question: Which activity change, negative = inhibition does the source give for `O=c1c(C=Nc2ccc(Oc3ccccc3)cc2)c[nH]n1-c1cccc(Cl)n1` here?
Answer: The activity change, negative = inhibition was active: -64.9%.

Question: For `CCOC(=O)c1c(C)oc2nc(C)nc(NCc3ccccc3Cl)c12`, which activity change, negative = inhibition is on record?
Answer: The activity change, negative = inhibition was inactive: -0.273%.

Question: With `O=C(CSc1nc(CCC2CCCC2)nc2ccccc12)NCc1ccc2c(c1)OCO2` as the compound, how does the activity change, negative = inhibition read?
Answer: Its activity change, negative = inhibition is inconclusive: -50.4%.

Question: With `CCC(=O)Oc1ccc(C(=O)Nc2c[nH]c(=O)[nH]c2=O)cc1` as the compound, how does the activity change, negative = inhibition read?
Answer: Its activity change, negative = inhibition is inconclusive: -49.1%.

Question: For `COc1ccc(Cl)cc1NC(=S)N1CCN(C(=O)C2CCCO2)CC1` (stereo unspecified), which activity change, negative = inhibition is on record?
Answer: The activity change, negative = inhibition was inactive: -21.5%.

Question: For `COCc1cc(C)nc(SCc2ccc(Cl)cc2)c1C#N`, which activity change, negative = inhibition is on record?
Answer: Its activity change, negative = inhibition is inconclusive: -44.1%.

Question: Which activity change, negative = inhibition does the source give for `O=S(=O)(c1ccc(F)cc1)N1CCN(C(=S)NCc2ccccc2)CC1` here?
Answer: Its activity change, negative = inhibition is inconclusive: -52.7%.

Question: With `O=C(Nc1cccc([N+](=O)[O-])c1)c1ccc2ccccc2c1O` as the compound, how does the activity change, negative = inhibition read?
Answer: Its activity change, negative = inhibition is active: -80.1%.

Question: For `Cc1cc(C)c(NC(=O)CS(=O)CC(=O)Nc2ccc(-n3cnnn3)c(C)c2)c(C)c1` (stereo unspecified), which activity change, negative = inhibition is on record?
Answer: Its activity change, negative = inhibition is active: -69.3%.

Question: Which activity change, negative = inhibition does the source give for `COc1ccccc1C(=O)NCc1ccc(-c2nc3ccccc3s2)cc1` here?
Answer: The activity change, negative = inhibition was active: -60.6%.

Question: With `COc1ccc(N=C2NC(=O)/C(=C/c3ccc(O)c(OC)c3)S2)cc1` as the compound, how does the activity change, negative = inhibition read?
Answer: Its activity change, negative = inhibition is active: -64.1%.

Question: Which activity change, negative = inhibition does the source give for `CC1CCC/C(=C(\C#N)c2nc(-c3cc4ccccc4oc3=O)cs2)C1` (stereo unspecified) here?
Answer: The activity change, negative = inhibition was inconclusive: -40.6%.

Question: Which activity change, negative = inhibition does the source give for `COC(=O)[C@@H](NC(=O)c1ccc2c(c1)S(=O)(=O)c1ccccc1C2=O)C(C)C` here?
Answer: Its activity change, negative = inhibition is inconclusive: -43.9%.

Question: For `COc1ccc(-c2noc(N3CCC(C(=O)N(C)c4ccccc4C)CC3)n2)cc1`, which activity change, negative = inhibition is on record?
Answer: Its activity change, negative = inhibition is inconclusive: -40.5%.

Question: With `CC(C)n1c(=O)c(C=Nc2ccc(F)cc2)c(O)n(Cc2ccco2)c1=O` as the compound, how does the activity change, negative = inhibition read?
Answer: Its activity change, negative = inhibition is inconclusive: -45.1%.

Question: Which activity change, negative = inhibition does the source give for `O=C(c1ccc(Br)o1)N(c1ccccn1)C1CCCCC1` here?
Answer: The activity change, negative = inhibition was inconclusive: -40.3%.

Question: With `COC(=O)c1c(C(=O)OC)c(-c2ccc(OC)cc2)n2c1CCC2` as the compound, how does the activity change, negative = inhibition read?
Answer: Its activity change, negative = inhibition is inconclusive: -59.6%.

Question: Which activity change, negative = inhibition does the source give for `COC(=O)c1ccc(OCC(O)Cn2cnc3cc(C)c(C)cc32)cc1` (stereo unspecified) here?
Answer: Its activity change, negative = inhibition is inactive: 18.8%.

Question: Which activity change, negative = inhibition does the source give for `Cc1cc(NC(=O)CCCn2c(C)c3cnn(-c4ccccc4)c(=O)c3c2C)ccc1Br` here?
Answer: The activity change, negative = inhibition was inactive: 10%.

Question: Which activity change, negative = inhibition does the source give for `Cn1c(SCC(=O)c2cc3ccccc3o2)nnc1-c1ccccc1` here?
Answer: The activity change, negative = inhibition was active: -60.2%.

Question: Which activity change, negative = inhibition does the source give for `N#Cc1cccc(NC(=O)N[C@H]2CC[C@@]34CCCN3C(=O)CCC[C@H]4C2Cc2ccccc2)c1` (stereo partly specified) here?
Answer: Its activity change, negative = inhibition is inactive: 0.85%.

Question: For `CCOc1ccccc1NC(=S)NC(=O)C1CC1`, which activity change, negative = inhibition is on record?
Answer: Its activity change, negative = inhibition is active: -63.6%.

Question: For `CC(=O)N1CC(C)Sc2ccc(S(=O)(=O)NCCc3ccc(C)cc3)cc21` (stereo unspecified), which activity change, negative = inhibition is on record?
Answer: Its activity change, negative = inhibition is inconclusive: 0%.

Question: Which activity change, negative = inhibition does the source give for `Cc1cc2cc3n(c2nn1)N=C(Cl)CC3` here?
Answer: Its activity change, negative = inhibition is active: -74.2%.

Question: Which activity change, negative = inhibition does the source give for `CC1N(C(=O)N2CCOCC2)CCN1S(=O)(=O)c1cccc(C(F)(F)F)c1` (stereo unspecified) here?
Answer: The activity change, negative = inhibition was inconclusive: -42.9%.

Question: With `Cc1ccc(C)c(NS(=O)(=O)c2ccc3c4c(cccc24)C(=O)N3)c1` as the compound, how does the activity change, negative = inhibition read?
Answer: Its activity change, negative = inhibition is inconclusive: -44.9%.

Question: For `O=C1Nc2cc(Cl)c(Cl)cc2N(O)N1c1ccc(Cl)c(Cl)c1`, which activity change, negative = inhibition is on record?
Answer: Its activity change, negative = inhibition is inconclusive: -45.5%.

Question: With `Cc1ccc2c(C)nc(Nc3nc(CSc4nc5ccccc5s4)cc(=O)[nH]3)nc2c1` as the compound, how does the activity change, negative = inhibition read?
Answer: The activity change, negative = inhibition was inconclusive: -51.9%.

Question: Which activity change, negative = inhibition does the source give for `O=C(Nc1ccc(C(=O)O)cc1)Nc1cccc2ccccc12` here?
Answer: Its activity change, negative = inhibition is inconclusive: -40.2%.

Question: Which activity change, negative = inhibition does the source give for `CC1=C(C(=O)OCc2ccc(C)cc2)C(c2c(Cl)cccc2Cl)CC(=O)N1` (stereo unspecified) here?
Answer: Its activity change, negative = inhibition is inactive: -18.7%.

Question: For `C(=C\c1ccccn1)/c1ccncc1`, which activity change, negative = inhibition is on record?
Answer: Its activity change, negative = inhibition is inactive: 32.9%.

Question: With `COc1ccc(OC)c(NC(=O)c2cc3c(s2)-c2ccccc2SC3)c1` as the compound, how does the activity change, negative = inhibition read?
Answer: Its activity change, negative = inhibition is inactive: 0.976%.

Question: With `COC(=O)C1=C(c2cc3ccccc3s2)C[C@@H]2CC[C@H]1N2C(=O)NCc1ccc(C(F)(F)F)cc1` as the compound, how does the activity change, negative = inhibition read?
Answer: Its activity change, negative = inhibition is inactive: -5.6%.
